The target in experiment [1] is HIS-Tagged human TIM-3 ECD (human) (UniProt Q8TDQ0). The experiment in a line: Octet BLI (FIG. 6A). For orientation: BLI is a label-free optical method that tracks binding on a fibre tip over time.
The target is the same in experiment [2]. In words: Octet (BLI): hTIM-3-HIS loaded on Ni-NTA sensors, mIgG1 control at 150 nM, then human LILRB2 ECD-Fc in solution.
Experiment [3] addresses Human LILRB2-Fc Chimera (R&D Systems, 2078-T4) (human) (UniProt Q8N423). The experiment in a line: Octet (BLI): human LILRB2 ECD-Fc loaded on anti-human Fc capture sensors, mIgG1 control at 150 nM, then human TIM-3-ECD-HIS in solution.

Amino acid sequences for entries named in this document (tags omitted). A change or cut given only in a name is not applied to a line headed by its entry. Residues count along the entry.
UniProt Q8TDQ0: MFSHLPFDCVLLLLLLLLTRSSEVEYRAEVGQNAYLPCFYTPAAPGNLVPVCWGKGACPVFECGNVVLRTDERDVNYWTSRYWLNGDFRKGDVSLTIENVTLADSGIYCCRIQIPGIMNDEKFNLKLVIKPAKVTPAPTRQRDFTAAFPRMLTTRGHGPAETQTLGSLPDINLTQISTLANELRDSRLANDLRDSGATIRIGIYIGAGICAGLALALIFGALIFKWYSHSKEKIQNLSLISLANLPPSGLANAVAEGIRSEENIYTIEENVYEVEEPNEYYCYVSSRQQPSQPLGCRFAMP
UniProt Q8N423, residues 22-460: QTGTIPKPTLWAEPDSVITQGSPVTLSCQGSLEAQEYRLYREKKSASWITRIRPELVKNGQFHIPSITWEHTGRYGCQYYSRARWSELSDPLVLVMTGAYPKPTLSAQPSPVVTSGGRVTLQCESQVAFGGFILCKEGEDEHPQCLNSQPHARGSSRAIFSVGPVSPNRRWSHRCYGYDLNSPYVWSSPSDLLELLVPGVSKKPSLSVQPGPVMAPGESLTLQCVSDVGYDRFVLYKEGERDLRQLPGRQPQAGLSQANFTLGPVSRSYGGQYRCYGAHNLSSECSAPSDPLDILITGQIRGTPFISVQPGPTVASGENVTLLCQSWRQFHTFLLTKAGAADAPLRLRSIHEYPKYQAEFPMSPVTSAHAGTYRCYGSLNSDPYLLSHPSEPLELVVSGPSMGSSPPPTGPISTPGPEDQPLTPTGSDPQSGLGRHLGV

Results are given in words; binding and its absence hold for the method and conditions named. Some binding calls cover weakened binding; strength is not graded here.

Take “Human LILRB2-Fc Chimera (R&D Systems, 2078-T4) (from UniProt Q8N423 22-460) (Fc fusion)”: the binding entry in experiment [1] and in experiment [2] was “binds” each time. With “HIS-Tagged human TIM-3 ECD (from UniProt Q8TDQ0 22-202) (receptor)”, in experiment [3], the binding entry is “binds”.

These data come from patent publication US20160200815A1.
